The values that follow come from BindingDB's records for doi:10.1016/s0024-3205(00)00911-5 (Mayo Foundation, 2000).

Amino acid sequences for entries named in this document (tags omitted).
UniProt P28223, whole entry: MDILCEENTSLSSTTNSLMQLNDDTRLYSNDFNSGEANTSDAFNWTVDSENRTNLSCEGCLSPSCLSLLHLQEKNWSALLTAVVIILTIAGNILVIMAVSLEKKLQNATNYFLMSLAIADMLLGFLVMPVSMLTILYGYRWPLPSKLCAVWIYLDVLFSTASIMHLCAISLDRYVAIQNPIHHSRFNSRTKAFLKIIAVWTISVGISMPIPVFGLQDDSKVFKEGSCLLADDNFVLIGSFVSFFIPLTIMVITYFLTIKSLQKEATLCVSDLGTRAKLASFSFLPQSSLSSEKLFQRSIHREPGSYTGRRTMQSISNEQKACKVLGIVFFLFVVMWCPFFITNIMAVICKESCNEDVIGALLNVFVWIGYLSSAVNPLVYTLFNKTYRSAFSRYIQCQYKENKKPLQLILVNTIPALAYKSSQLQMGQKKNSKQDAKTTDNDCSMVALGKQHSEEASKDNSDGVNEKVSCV

One may read the Ki as the equilibrium dissociation constant of an inhibitor or competing ligand from its target. A lower Ki goes with a stronger hold on the target.

The target in the assay is 5-hydroxytryptamine receptor 2A (Homo sapiens, UniProt P28223).

Molecules are shown by their SMILES.

`COc1cc(C(C)=O)ccc1OCCCN1CCC(c2noc3cc(F)ccc23)CC1` came in with a Ki of 0.2 nM. In other words, the sub-nanomolar range.
